For the data set, the system named is A549 human lung cancer cells. In words: Fluorescence microscopy, cellular localisation, Examples 2 and 4. To be noted: 4-7 h, Mitotracker Red / Hoechst overlay. The data set is classed as cell-based.

The structures appear in SMILES notation. Structures can show the parent of a compound that is named as a salt.

Consider `COc1cccc2c1C(=O)c1c(O)c3c(c(O)c1C2=O)C[C@@](O)(C(=O)CO)C[C@@H]3O[C@H]1C[C@H](N)[C@H](O)[C@H](C)O1` [Doxorubicin•HCl, Doxorubicin], for which the cellular localisation result is recorded as “mainly the nucleus” (listed as Doxorubicin·HCl) and “nuclear localization” (listed as doxorubicin).

For the origin of these results see patent publication US12577262B2, “Functionalized gold carbene napthaquinone complexes for use in the treatment of cancer” (Board of Regents, The University of Texas System, priority 2019, dated 2026).
